## Results of single-concentration screens

By UniProt entry, the sequences of proteins in these tests, tags left out.
UniProt P9WNZ1, whole entry: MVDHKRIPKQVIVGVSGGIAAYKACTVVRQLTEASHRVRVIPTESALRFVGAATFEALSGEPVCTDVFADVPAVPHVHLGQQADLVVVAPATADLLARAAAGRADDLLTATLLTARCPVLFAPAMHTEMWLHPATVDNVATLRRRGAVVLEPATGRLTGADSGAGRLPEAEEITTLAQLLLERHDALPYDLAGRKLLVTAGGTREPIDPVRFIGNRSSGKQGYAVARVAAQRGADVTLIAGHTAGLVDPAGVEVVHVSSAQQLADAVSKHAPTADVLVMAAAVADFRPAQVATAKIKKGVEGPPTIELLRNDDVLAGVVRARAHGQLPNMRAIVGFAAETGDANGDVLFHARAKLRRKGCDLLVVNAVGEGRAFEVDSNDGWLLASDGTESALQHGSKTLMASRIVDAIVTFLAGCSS

Source: ChEMBL document CHEMBL3988442, “University of Dundee, Small-Polar-MMV Screening Library” (2021).

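Enzyme assay of CoaBC with a phosphate dye (Biomol Green) read at 650 nm. Target: Coenzyme A biosynthesis protein CoaBC, Mycobacterium tuberculosis (UniProt P9WNZ1). Compounds at 30 µM. Higher reads as stronger inhibition, judged from the few compounds that gave an IC50. Most strong results did not repeat in a second test. Of about 67,000 compounds tested this way, about 40 (0.06%) reached 50% or more in at least one test.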

Each number is a percent effect as filed.
The record does not define 0% and 100%; most values in the screen are far below 50% and negative numbers occur (in some assays of this library far below -100).
Compounds were drawn at random from those tested, without regard to their results.
Two or more numbers in one place are separate tests of the same structure; such repeats can differ widely.

structure	effect
CN(C(=O)COC1CCCC1)C1CCN(CC2CCOC2)CC1 (centres unmarked)	4.888%
CCCSCC(=O)N1CCCC2(CCC(=O)N(CCc3c[nH]cn3)C2)C1 (centres unmarked)	0.8157%
Cc1ccc(C(=O)N2CCN(CC(C)O)CC2)cc1S(C)(=O)=O (centres unmarked)	3.412%
Cc1cc(N2CCC(O)CC2)nc(C2CCCN2C)n1 (centres unmarked)	7.732% & 61.65%
Nc1nc(CCNc2ncnc3c2CCN(C(=O)C2CC2)C3)cs1	1.951%
CN1CCN(c2cc(CNC(=O)c3ccc(Cl)o3)ccn2)CC1	5.627%
CN1C(Cn2cccn2)C[C@@H]2CN(Cc3cnn(C)c3)CC[C@@H]21 (some centres unmarked)	3.821%
CCc1nnc2n1CCN(C(=O)c1cc(C)n(-c3ccccc3)c1C)C2	1.173%
CN(CC(=O)NC1CC1)S(=O)(=O)c1ccc(F)cc1Cl	-2.545%
COCCNC(=O)N1CC(Cc2ccccc2F)C1	5.825%
Cc1nn(C)c(N2CCOCC2)c1CNCc1ccnc(N(C)C)c1	6.154%
Nc1nc2c(c(=O)[nH]1)CCN(C(=O)c1cccc3nccnc13)C2	0.9091%
CC(C)C(C)N(C(=O)Cn1nc2n(c1=O)CCCCC2)C1CC1 (centres unmarked)	3.641%
Nc1cc2c(nn1)CCN(C(=O)c1csc(-c3ccco3)n1)C2	18.55%
Cn1cccc1C(=O)NCc1cnc2n1CCN(CC1CCOCC1)C2	2.463%
COc1ccc(-c2nnc(C(C)N3CCC4(CC3)OCCO4)o2)cc1 (centres unmarked)	4.167%
COCCO[C@H]1CCN(Cc2ccoc2)[C@H]1Cc1cccnc1	-5.926%
CCOCCn1nnc(C2(NC(=O)c3ccccc3)CCCC2)n1	-12.95%
O=C(NC[C@]1(O)CN(Cc2ncccc2F)C[C@H]1O)c1cc[nH]n1	-0.2283%
O=C(CC(SC1CCCCC1)C(=O)O)c1ccc(Br)cc1 (centres unmarked)	-2.532%
Cc1nc2sccn2c1C(=O)N1CCn2nc(C(=O)NC3CC3)cc2C1	0.7453%
CCN1CCn2c(C)cnc2C12CCN(C(=O)N(C)C)CC2	3.059%
Cn1cccc1C(=O)N1CC[C@H]2[C@H]1CCN2CC1CC1	3.594%
CC(C)(C)NC(=O)C1CSCN1S(=O)(=O)c1ccccc1S(C)(=O)=O (centres unmarked)	2.811%
O=C1CCSCC(C(=O)N2CCC(O)CC2)N1 (centres unmarked)	-1.527%
CCc1nc(C2CCCN2CC(=O)Nc2cc(C)no2)no1 (centres unmarked)	3.484%
CCOCCC(=O)NC(Cc1ccc(C)cc1)c1ccccn1 (centres unmarked)	-3.758%
COC(=O)c1sccc1S(=O)(=O)NCCC(O)c1ccoc1 (centres unmarked)	-1.903%
N#Cc1cccc(C(=O)N2CC[C@H]3[C@H]2CCN3CC2CCOCC2)c1	-1.112%
CNc1cc(C)nc(C2COCCN2CCc2ccc(F)cc2)n1 (centres unmarked)	-2.891%
Cc1cnn(C2CCCN(C(=O)c3ccc(OCC4CC4)nc3)C2)c1 (centres unmarked)	5%
COc1ncccc1CNC(=O)Nc1ccc(N(C)C)nc1	4.54%
CCC(=O)N(CC)CCc1nccs1	-0.4969%
CCS(=O)(=O)CCCN1CCSCC1c1ccc(Cl)cc1 (centres unmarked)	4.545%
O=C(c1ncoc1C1CC1)N1CCCN(CCCc2ccccc2)CC1	-7.654%
C=C(C)COc1ccc(C(=O)NCC2CC(CC)=NO2)cc1 (centres unmarked)	4.435%
Cc1nnn2c1COCC(CNC(=O)c1cnoc1C)C2 (centres unmarked)	-17.13%
CCCc1nc(CN2CCCC2Cn2cncn2)no1 (centres unmarked)	0.3727%
COc1ccc(CN2CCn3c(C(=O)N(C)C)cnc3C2)cc1	1.25%
CC(=O)NCC(=O)N1CCOCC(Cc2ccc3c(ccn3C)c2)C1 (centres unmarked)	-16.28%
COc1ccccc1NC(=O)Cc1c(C)nc2c(c1C)c(=O)[nH]n2C	-5.119%
CCC(CO)N(Cc1ccccn1)Cc1c[nH]nc1-c1ccc(F)cc1 (centres unmarked)	3.629%
Cc1nn(C)cc1-c1nn2c(C(F)(F)F)nnc2s1	-0.9639%
COCCn1ccc2ccc(C(=O)O)cc21	-3.39%
CCc1nnc2n1CC(CNc1cnc3ccccc3n1)CC2 (centres unmarked)	-0.7444%
CCc1nnsc1C(=O)NC1CCN(CCOc2ccc(Br)cc2)CC1	-19.35%
c1ccc(CN2CC[C@H]3CO[C@H](CNc4ncccn4)[C@H]3C2)nc1	0.1269%
O=C(c1ccc[nH]1)N1C[C@H]2CC[C@@H]1CN(C1Cc3ccccc3C1)C2	4.405%
COCC1CN(C(=O)Nc2cc(Cl)cc(Cl)c2)CCO1 (centres unmarked)	4.519%
CC(C)N1C[C@@H]2OCC(=O)N(Cc3ccccc3)[C@@H]2C1	17.09%
CCN(C(=O)c1nc2c(s1)CCCN2C)C(C)C	2.061%
COc1cccc2sc(N(C)CC(=O)NCc3nc(C)no3)nc12	10.44%

7 of the entries, repeated:

| structure | effect |
|---|---|
| `C=C(C)COc1ccc(C(=O)NCC2CC(CC)=NO2)cc1` (centres unmarked) | 4.435% |
| `Cc1nn(C)cc1-c1nn2c(C(F)(F)F)nnc2s1` | -0.9639% |
| `CCN(C(=O)c1nc2c(s1)CCCN2C)C(C)C` | 2.061% |
| `CCN1CCn2c(C)cnc2C12CCN(C(=O)N(C)C)CC2` | 3.059% |
| `COc1ccccc1NC(=O)Cc1c(C)nc2c(c1C)c(=O)[nH]n2C` | -5.119% |
| `CCC(CO)N(Cc1ccccn1)Cc1c[nH]nc1-c1ccc(F)cc1` (centres unmarked) | 3.629% |
| `Cc1nnn2c1COCC(CNC(=O)c1cnoc1C)C2` (centres unmarked) | -17.13% |